Experimental data as given in doi:10.1101/2020.08.12.247874.
These are yes or no findings as the source states them, for the method shown. Binding can be weak; no strength is given.

Amino acid sequences for entries named in this document (tags omitted). A change or cut given only in a name is not applied to a line headed by its entry.
UniProt P84022: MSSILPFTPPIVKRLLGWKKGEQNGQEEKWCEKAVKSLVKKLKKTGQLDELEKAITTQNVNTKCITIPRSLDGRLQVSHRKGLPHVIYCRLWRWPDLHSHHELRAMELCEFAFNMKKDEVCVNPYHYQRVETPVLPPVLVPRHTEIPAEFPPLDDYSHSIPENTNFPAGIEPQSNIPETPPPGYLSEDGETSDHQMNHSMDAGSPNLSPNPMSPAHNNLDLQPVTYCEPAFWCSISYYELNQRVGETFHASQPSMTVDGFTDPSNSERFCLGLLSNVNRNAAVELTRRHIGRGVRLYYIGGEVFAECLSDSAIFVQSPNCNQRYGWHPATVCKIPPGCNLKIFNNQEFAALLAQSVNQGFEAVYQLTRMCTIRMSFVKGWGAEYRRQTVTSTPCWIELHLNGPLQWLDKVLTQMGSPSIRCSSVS
UniProt O95405: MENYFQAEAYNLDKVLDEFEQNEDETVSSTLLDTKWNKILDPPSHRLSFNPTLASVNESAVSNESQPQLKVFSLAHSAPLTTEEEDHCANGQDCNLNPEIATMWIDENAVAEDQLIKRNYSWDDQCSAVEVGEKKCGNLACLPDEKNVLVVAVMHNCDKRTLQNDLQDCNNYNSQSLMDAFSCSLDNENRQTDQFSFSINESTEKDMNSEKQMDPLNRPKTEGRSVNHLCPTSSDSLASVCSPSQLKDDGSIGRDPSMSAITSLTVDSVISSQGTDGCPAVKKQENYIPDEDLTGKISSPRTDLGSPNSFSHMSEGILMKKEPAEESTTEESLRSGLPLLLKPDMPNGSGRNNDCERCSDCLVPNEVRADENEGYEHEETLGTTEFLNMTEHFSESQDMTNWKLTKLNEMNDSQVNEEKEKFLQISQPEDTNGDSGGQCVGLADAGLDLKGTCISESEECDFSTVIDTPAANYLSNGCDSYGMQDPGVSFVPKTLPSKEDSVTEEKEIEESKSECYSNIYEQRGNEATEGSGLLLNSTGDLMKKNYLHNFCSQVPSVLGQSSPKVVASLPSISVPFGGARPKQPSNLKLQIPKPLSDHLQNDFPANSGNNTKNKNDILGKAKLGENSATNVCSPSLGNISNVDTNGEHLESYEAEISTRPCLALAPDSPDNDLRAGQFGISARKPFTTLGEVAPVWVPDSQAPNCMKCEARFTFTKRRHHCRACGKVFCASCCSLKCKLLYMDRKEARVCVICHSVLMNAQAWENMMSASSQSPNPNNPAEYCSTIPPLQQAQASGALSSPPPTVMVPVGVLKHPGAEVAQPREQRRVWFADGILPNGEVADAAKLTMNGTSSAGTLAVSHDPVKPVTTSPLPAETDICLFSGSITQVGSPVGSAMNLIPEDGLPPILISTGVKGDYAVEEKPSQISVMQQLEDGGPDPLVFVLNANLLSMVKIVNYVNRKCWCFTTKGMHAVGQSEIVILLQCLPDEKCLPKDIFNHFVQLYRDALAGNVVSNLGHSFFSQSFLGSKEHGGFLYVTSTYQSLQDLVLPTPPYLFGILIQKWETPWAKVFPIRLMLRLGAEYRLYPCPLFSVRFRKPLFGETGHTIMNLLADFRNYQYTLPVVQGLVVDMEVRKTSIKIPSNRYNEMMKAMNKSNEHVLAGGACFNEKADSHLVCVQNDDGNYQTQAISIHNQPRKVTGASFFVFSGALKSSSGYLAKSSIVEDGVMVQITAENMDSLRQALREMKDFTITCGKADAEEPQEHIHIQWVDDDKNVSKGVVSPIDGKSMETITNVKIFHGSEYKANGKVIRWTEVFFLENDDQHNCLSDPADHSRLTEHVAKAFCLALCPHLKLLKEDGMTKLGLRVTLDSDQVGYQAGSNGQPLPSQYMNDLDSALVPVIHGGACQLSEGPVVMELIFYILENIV

Biological target: SMAD3 (UniProt P84022)
Experiment: qYY2H

binding: binds
Substance: SMAD binding domain of SARA (from UniProt O95405) (domain or fragment)
